From PMC7819943, “Rice protein-binding microarrays: a tool to detect cis-acting elements near promoter regions in rice”
The list shows a part of the results.

Amino acid sequences for entries named in this document (tags omitted).
UniProt Q0JBA9, entry or part of it: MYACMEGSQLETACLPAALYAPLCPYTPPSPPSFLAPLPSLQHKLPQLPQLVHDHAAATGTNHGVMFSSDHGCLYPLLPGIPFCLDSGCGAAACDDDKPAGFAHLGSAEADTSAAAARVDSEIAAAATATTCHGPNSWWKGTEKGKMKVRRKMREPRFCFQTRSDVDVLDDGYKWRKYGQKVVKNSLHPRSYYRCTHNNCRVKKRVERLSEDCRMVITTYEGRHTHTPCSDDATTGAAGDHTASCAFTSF

Biological target: OsWRKY34 (Oryza sativa, UniProt Q0JBA9 1-250)
Test: protein-binding microarray (RPBM); PBS, 2% BSA, 51.3 ng/ul salmon testes DNA, 50 uM zinc acetate, 200 nM TF, 25 C, 1 h; high values mean tight binding
Details: protein: recombinant; tags: N-terminal polyhistidine and DsRed monomer fusion (pET32a); label: CyDye5-dUTP incorporated in the synthesized complementary strand; 3' TTTTT single-stranded linker to array surface; dsDNA, one strand shown
Summary of the method: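 Binding signal is defined as the fluorescence intensity of each feature in arbitrary units, read on an Axon 4000B scanner. Transcription factors with N-terminal polyhistidine and DsRed fusions came from E. coli BL21-CodonPlus and were purified on Ni–NTA. They were incubated at 200 nM for 1 h at 25 °C on a custom Agilent array that had been made double-stranded with Cy5-dUTP, with 50 µM zinc acetate present, and the array was washed.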

Row | Sequence | binding signal
1 | TTATCTCTATTACCCCTTCTAACATGCTTCTATGTTTTTTCGGAGTCACCTAGTGCAG | 10300 fluorescence intensity (a.u.)
2 | CGGGACGAGGCCCTTCTTCTTGCGCTCCTCCAGGCGCTGCCGGAGTCACCTAGTGCAG | 8170 fluorescence intensity (a.u.)
3 | CTCCTCGGTGCGGTTGCGGTTTCGTTTTCGTTTTCTTTCCCGGAGTCACCTAGTGCAG | 13400 fluorescence intensity (a.u.)
4 | TGTAAGAACTTAAGTGTAGTGGCAGTGGCCCCAAATTTTTCGGAGTCACCTAGTGCAG | 8660 fluorescence intensity (a.u.)
5 | CTGTTACAAGTATTACTTTGCCCTCAACCTCACTATTGTACGGAGTCACCTAGTGCAG | 8970 fluorescence intensity (a.u.)
6 | TTGGGAGTACGGGTTTTGTGTGTGTTTTCTCCACTAAAATCGGAGTCACCTAGTGCAG | 9970 fluorescence intensity (a.u.)
7 | CTAGCTTTCCATCATCCCACCACTGCCTCTGCTAAGCTACCGGAGTCACCTAGTGCAG | 9080 fluorescence intensity (a.u.)
8 | ATATGGCCTTCGGTGGTATCCACGTAGAGCTTTACGTTAACGGAGTCACCTAGTGCAG | 8060 fluorescence intensity (a.u.)
9 | TATATTGCTCTTAATTTATTTGTGTTACTTTTTATGTGTTCGGAGTCACCTAGTGCAG | 8330 fluorescence intensity (a.u.)
10 | GCCTTTGTTGATGTCAAGGTCAATTTCGTAGTTTACCTTTCGGAGTCACCTAGTGCAG | 8040 fluorescence intensity (a.u.)
11 | AGGCTTCTCTGTCTCCATTTCTGCATATGTAGTTTGCTTTCGGAGTCACCTAGTGCAG | 10900 fluorescence intensity (a.u.)
12 | TCAAACCTCGCGACTTCTTCTTCCACCTCTCGCTCCGGGCCGGAGTCACCTAGTGCAG | 11800 fluorescence intensity (a.u.)
13 | CTGCTCATGTTTCCCTCACTCCATTGCCCCTGCCTTTTCGCGGAGTCACCTAGTGCAG | 10400 fluorescence intensity (a.u.)
14 | ATCCTCGCTGCTCTTCTCCACTGGTTCTCCATCGCCGGCCCGGAGTCACCTAGTGCAG | 8330 fluorescence intensity (a.u.)
15 | ATATTTCGCCGCGCCCCGCGCCACGCCACGCCACGCCACCCGGAGTCACCTAGTGCAG | 8920 fluorescence intensity (a.u.)
16 | TTGCAAACGACGTCCATCCCATCTCTCTCTCACCCCTTCACGGAGTCACCTAGTGCAG | 8660 fluorescence intensity (a.u.)
17 | ATTCCTTTTCAGTTAAATGCATGTTACATTTGTCGGTAATCGGAGTCACCTAGTGCAG | 9180 fluorescence intensity (a.u.)
18 | AGTTGGGGTACTCTTGATCCTTTCAGTTCTTGTGTTCGTTCGGAGTCACCTAGTGCAG | 8850 fluorescence intensity (a.u.)
19 | GTCCACGGCCCAAAGCAAAGCACACGTACAGCTACACTTTCGGAGTCACCTAGTGCAG | 9930 fluorescence intensity (a.u.)
20 | GACGTGGCTATGGGTGGGCGTTGCGAGCCGGCATTTTATACGGAGTCACCTAGTGCAG | 16400 fluorescence intensity (a.u.)
21 | GCGCTCAGGGCCCCACCACCTCGGCACCCTACACCGTCCACGGAGTCACCTAGTGCAG | 11800 fluorescence intensity (a.u.)

Another view of part of the listing above:

| Row | Sequence | binding signal |
| --- | --- | --- |
| 17 | ATTCCTTTTCAGTTAAATGCATGTTACATTTGTCGGTAATCGGAGTCACCTAGTGCAG | 9180 fluorescence intensity (a.u.) |
| 18 | AGTTGGGGTACTCTTGATCCTTTCAGTTCTTGTGTTCGTTCGGAGTCACCTAGTGCAG | 8850 fluorescence intensity (a.u.) |
| 19 | GTCCACGGCCCAAAGCAAAGCACACGTACAGCTACACTTTCGGAGTCACCTAGTGCAG | 9930 fluorescence intensity (a.u.) |

Additional entries follow.

Row | Sequence | binding signal
22 | ACTGCTCCAACACTACCTCTACAGGCTATCTCTGGGGACCCGGAGTCACCTAGTGCAG | 10200 fluorescence intensity (a.u.)
23 | TCTAATTCTGTCCACTGATTTTTTTTTTCAGTTTATGTCTCGGAGTCACCTAGTGCAG | 8720 fluorescence intensity (a.u.)
24 | CACTTCATCCATCGTTCGCCCGTGTCTATCCGCAGCGAGACGGAGTCACCTAGTGCAG | 8550 fluorescence intensity (a.u.)
25 | CCAATCACAATCCTCCACCATTTACTCCTACATACTTTTTCGGAGTCACCTAGTGCAG | 11600 fluorescence intensity (a.u.)
26 | ATTTGCGAGTTCGATCATATTATGGTGTGTTATGTTCCTTCGGAGTCACCTAGTGCAG | 13000 fluorescence intensity (a.u.)
27 | GGGCCTATAACTGTAGTTCCATCACGTCTCTCTGTACGTTCGGAGTCACCTAGTGCAG | 8820 fluorescence intensity (a.u.)
28 | TTCGCACTTTGCCGTTTTCCGACCGTTACTGCCATGCTTTCGGAGTCACCTAGTGCAG | 15800 fluorescence intensity (a.u.)
29 | CCGTTTCCTTTGCTGGTTGTGTTTTGTGCTTGCATTCATGCGGAGTCACCTAGTGCAG | 12400 fluorescence intensity (a.u.)
30 | GTCCCATTTTAACTGCAGCCATGGTTTTCCGCATCCAACTCGGAGTCACCTAGTGCAG | 10400 fluorescence intensity (a.u.)
31 | ATATTGGTGGGCGCGGATTTTAATAGGTGGGCGGTGGATTCGGAGTCACCTAGTGCAG | 8430 fluorescence intensity (a.u.)
32 | TTCGTGCACGCGGTCCATGCACCAGCCACCATTCCCTTCGCGGAGTCACCTAGTGCAG | 8350 fluorescence intensity (a.u.)
33 | ATTCTCCCTCGCTTCTGATCTGTTTCTCAGTTGGGTATCTCGGAGTCACCTAGTGCAG | 10000 fluorescence intensity (a.u.)
34 | AATTTTGAAATTATTATTTATTTTGTTTGTGACTTGCTTTCGGAGTCACCTAGTGCAG | 10100 fluorescence intensity (a.u.)
35 | CCCCGGACTCCACTCTACACCCTTCACGCGCGCGAGCACGCGGAGTCACCTAGTGCAG | 9640 fluorescence intensity (a.u.)
36 | ACTTGCTCTTTTATTTTTCTCCATTGTCAGCATGGTCGGTCGGAGTCACCTAGTGCAG | 13600 fluorescence intensity (a.u.)
37 | CCATCCAGGGTTGTAATCTTATAATTTTTTTCCTGCTCTACGGAGTCACCTAGTGCAG | 9430 fluorescence intensity (a.u.)
38 | ATGCTACTATACTATTGATCCTTGTTATGTGACTTATGTCCGGAGTCACCTAGTGCAG | 9240 fluorescence intensity (a.u.)
39 | ATAATGGGAAATGTGGGGTAGGATTGGTATTGGAAAATGACGGAGTCACCTAGTGCAG | 11000 fluorescence intensity (a.u.)
40 | AATAGCCATTTTTTTTCTCCATTTTCTTGCACACTGAACTCGGAGTCACCTAGTGCAG | 11400 fluorescence intensity (a.u.)
41 | TTTGGCGCTACCTATTTAAACCGCTAGCTGCCACTCTCTCCGGAGTCACCTAGTGCAG | 8490 fluorescence intensity (a.u.)
42 | TCTTCCATCGCCACGGCCCACACTCTGCCGAGCGCGTCTCCGGAGTCACCTAGTGCAG | 10500 fluorescence intensity (a.u.)
